Assay results: the supplement of paper PMC6411743
± gives the standard deviation of the averaged measurements. This is a selection; strong and weak results do not stand in their true shares.

By UniProt entry, the sequences of proteins in these tests, tags left out. Where a name states a change or a piece, a line headed by the entry shows the natural chain unless it says otherwise.
UniProt O76071: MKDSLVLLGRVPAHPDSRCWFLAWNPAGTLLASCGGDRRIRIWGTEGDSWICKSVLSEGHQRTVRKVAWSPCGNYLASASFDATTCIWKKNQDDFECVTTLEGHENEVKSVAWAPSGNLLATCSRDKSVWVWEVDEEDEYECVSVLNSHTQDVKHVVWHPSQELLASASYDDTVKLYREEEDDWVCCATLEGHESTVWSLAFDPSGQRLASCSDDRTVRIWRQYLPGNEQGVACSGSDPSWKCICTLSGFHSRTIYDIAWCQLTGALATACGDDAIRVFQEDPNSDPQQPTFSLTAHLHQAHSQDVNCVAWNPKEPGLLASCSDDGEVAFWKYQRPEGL
UniProt O60911: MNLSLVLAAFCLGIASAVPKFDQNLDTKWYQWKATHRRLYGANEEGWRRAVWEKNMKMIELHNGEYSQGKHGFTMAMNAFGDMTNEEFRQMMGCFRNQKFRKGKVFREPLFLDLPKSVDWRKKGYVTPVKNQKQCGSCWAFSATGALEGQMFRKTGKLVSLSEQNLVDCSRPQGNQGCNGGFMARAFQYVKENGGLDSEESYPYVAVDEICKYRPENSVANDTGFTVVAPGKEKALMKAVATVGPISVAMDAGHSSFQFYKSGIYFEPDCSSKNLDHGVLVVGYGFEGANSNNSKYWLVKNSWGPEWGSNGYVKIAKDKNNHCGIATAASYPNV
UniProt O75071: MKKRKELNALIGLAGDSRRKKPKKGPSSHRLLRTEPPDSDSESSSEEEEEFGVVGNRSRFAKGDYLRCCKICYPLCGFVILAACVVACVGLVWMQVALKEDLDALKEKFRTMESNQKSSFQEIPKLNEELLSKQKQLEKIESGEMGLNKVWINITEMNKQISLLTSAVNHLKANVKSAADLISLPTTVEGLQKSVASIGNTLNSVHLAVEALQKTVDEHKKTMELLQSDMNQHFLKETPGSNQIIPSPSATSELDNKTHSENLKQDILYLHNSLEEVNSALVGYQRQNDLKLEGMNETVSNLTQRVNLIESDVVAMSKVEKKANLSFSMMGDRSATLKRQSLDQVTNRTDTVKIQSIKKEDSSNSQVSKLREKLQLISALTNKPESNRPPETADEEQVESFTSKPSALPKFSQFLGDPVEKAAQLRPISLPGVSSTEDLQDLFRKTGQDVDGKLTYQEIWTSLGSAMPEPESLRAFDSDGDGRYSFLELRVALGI
UniProt O60927: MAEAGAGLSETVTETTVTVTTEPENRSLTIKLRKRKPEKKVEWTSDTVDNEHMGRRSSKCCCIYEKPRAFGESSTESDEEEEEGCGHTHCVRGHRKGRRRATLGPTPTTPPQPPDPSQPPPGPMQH
UniProt O95696: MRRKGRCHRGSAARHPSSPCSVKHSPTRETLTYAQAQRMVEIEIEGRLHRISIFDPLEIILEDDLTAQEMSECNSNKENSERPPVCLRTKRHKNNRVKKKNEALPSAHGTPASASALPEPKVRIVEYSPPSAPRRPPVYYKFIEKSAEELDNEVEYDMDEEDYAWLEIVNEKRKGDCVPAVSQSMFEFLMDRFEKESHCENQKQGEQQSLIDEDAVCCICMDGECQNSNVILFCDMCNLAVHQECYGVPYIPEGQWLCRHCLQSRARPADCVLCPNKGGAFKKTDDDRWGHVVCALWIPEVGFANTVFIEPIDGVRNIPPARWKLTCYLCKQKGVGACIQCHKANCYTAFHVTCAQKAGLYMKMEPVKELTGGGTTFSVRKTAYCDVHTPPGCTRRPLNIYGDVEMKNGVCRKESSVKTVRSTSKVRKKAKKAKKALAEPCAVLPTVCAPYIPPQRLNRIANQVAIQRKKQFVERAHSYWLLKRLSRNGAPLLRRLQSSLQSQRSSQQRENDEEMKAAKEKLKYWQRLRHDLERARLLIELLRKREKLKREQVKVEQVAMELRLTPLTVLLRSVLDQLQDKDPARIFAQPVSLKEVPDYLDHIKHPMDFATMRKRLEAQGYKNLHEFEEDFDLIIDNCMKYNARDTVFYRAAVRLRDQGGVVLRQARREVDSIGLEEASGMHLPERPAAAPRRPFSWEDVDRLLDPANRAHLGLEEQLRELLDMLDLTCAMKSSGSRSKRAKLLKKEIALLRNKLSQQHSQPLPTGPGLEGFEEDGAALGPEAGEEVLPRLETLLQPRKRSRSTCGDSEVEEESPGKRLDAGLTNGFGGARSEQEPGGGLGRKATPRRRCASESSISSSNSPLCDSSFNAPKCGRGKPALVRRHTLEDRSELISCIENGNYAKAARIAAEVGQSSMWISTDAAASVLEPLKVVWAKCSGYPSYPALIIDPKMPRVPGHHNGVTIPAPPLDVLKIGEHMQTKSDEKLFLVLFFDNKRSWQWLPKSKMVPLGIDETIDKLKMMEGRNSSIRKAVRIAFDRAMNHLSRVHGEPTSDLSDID
UniProt O75683: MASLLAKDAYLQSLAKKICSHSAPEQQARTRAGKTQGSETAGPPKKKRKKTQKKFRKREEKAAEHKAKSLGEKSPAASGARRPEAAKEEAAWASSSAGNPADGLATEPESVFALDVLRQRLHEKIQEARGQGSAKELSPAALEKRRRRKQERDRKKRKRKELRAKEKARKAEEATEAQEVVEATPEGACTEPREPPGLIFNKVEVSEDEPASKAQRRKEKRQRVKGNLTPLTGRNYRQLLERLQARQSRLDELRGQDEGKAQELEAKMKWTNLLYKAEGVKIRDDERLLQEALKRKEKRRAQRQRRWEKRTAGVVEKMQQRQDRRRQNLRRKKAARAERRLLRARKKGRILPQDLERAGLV
UniProt O95402: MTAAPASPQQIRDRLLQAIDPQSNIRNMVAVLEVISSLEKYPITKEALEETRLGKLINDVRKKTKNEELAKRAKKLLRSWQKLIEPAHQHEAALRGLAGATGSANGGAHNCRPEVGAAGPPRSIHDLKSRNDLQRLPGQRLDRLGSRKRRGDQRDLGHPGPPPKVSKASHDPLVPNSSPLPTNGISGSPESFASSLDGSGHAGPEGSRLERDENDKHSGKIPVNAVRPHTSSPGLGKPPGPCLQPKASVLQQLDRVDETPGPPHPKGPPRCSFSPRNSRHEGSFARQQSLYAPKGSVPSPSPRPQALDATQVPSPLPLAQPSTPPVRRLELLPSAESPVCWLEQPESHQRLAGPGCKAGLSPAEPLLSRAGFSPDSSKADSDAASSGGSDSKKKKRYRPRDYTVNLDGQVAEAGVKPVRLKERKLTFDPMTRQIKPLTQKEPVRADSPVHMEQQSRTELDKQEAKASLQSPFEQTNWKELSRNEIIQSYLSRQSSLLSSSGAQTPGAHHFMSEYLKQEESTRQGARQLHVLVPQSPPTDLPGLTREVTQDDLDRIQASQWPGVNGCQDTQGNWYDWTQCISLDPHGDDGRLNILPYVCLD
UniProt O95373, whole entry: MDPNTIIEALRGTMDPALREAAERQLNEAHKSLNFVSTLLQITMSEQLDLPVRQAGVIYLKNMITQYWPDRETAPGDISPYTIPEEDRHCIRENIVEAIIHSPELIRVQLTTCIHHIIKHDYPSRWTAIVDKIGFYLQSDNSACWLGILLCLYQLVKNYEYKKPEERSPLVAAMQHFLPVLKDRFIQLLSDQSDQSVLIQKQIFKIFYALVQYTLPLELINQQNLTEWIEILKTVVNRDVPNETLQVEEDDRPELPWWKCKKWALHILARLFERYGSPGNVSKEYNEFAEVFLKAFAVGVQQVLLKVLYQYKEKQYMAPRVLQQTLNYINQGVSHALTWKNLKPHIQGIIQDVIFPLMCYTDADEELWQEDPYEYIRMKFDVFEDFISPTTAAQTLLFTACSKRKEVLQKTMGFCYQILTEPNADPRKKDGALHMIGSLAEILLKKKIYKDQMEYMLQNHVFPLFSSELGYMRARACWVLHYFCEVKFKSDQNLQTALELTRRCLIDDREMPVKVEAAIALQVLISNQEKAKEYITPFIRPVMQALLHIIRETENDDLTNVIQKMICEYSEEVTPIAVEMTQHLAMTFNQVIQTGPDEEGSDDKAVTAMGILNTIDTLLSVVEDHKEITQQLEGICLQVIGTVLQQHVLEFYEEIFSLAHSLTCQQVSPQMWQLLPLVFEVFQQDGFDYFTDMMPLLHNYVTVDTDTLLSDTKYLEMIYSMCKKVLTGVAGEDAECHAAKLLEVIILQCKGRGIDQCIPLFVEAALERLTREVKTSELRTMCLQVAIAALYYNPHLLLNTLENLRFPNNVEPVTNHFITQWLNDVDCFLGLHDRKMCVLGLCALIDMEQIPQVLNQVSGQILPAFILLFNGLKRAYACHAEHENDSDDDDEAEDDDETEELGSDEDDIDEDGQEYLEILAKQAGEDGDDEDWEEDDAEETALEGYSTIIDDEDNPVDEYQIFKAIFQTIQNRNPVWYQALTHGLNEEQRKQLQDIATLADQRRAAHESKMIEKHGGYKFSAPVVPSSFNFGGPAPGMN
UniProt O60568: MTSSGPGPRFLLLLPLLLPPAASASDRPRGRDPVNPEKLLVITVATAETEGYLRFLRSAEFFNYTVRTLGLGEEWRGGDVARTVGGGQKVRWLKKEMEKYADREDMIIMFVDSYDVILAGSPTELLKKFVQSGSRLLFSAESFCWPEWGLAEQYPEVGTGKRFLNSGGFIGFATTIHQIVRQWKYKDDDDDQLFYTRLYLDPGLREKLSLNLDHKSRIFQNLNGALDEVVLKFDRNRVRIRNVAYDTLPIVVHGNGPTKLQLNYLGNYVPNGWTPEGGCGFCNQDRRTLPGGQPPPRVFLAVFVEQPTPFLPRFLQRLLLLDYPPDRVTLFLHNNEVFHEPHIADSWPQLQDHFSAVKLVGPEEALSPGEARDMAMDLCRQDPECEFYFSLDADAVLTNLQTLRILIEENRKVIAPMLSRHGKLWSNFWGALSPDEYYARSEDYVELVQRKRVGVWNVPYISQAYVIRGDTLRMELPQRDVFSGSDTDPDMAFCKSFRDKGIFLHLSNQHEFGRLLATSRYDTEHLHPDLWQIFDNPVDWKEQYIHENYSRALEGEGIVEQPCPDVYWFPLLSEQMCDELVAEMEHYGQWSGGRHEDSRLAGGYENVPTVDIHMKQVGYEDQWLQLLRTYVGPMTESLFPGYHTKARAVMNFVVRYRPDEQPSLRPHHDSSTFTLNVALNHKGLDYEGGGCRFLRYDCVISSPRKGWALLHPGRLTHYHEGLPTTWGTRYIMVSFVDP
UniProt O75381, whole entry: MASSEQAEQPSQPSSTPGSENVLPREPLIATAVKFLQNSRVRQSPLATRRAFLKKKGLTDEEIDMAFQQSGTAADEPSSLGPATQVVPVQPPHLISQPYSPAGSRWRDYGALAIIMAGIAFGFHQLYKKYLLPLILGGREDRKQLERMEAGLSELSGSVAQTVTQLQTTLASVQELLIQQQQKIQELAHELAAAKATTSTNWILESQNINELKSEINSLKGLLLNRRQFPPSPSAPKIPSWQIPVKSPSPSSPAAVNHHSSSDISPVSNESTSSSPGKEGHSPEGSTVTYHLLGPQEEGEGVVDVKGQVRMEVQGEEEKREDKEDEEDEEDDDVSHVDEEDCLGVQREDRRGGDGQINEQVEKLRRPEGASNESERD
UniProt O75794: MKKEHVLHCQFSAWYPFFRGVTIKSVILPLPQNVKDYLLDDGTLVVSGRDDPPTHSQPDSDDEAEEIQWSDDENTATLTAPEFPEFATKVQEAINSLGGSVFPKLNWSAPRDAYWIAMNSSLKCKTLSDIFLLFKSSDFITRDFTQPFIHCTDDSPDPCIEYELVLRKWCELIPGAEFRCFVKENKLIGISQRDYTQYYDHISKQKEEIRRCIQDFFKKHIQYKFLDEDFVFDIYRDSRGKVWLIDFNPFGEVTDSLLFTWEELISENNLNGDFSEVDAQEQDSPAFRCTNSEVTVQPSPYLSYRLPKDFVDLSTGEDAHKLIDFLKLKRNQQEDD
UniProt O60870: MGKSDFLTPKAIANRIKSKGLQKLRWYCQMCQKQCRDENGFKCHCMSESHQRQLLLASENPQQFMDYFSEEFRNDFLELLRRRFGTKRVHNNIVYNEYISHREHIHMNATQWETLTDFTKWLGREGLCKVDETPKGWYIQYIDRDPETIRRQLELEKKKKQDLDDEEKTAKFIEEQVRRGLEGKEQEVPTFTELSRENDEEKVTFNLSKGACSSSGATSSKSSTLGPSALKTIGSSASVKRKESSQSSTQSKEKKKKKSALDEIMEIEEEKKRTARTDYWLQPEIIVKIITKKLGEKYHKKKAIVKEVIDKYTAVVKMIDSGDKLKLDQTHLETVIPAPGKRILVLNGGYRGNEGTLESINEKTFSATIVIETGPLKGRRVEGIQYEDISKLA

Compound: Nc1ncnc2c1ncn2[C@@H]1O[C@H](COP(=O)(O)OP(=O)(O)OP(=O)(O)O)[C@@H](O)[C@H]1O [adenosine triphosphate]
Experiment: NP40-soluble protein abundance relative to vehicle (solubility fold change) (ratio); higher = more soluble protein in presence of ATP
Summary of the method: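 Jurkat crude lysate (Dounce-homogenised) was treated with eight concentrations from 0.1 to 10 mM for 10 min at room temperature, then 3 min at 37 °C. It was solubilised with 0.8% NP40 and benzonase (60 min, 4 °C) and ultracentrifuged, and the supernatant was TMT-labelled for LC-MS/MS. Intensities were vsn-normalised, and the value is the fold change against the NP40-processed vehicle per replicate, from three independent experiments.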

| Target | NP40-soluble protein abundance (concentration: 1mM) | NP40-soluble protein abundance (concentration: 2mM) | NP40-soluble protein abundance (concentration: 4mM) | NP40-soluble protein abundance (concentration: 6mM) | NP40-soluble protein abundance (concentration: 8mM) | NP40-soluble protein abundance (concentration: 10mM) |
| --- | --- | --- | --- | --- | --- | --- |
| CIAO1 (UniProt O76071) | 1.03 ± 0.11 | 0.985 ± 0.062 | 0.995 ± 0.034 | 0.913 ± 0.07 | 1 ± 0.016 | 0.998 ± 0.05 |
| CTSV (UniProt O60911) | 1.06 ± 0.062 | 0.999 ± 0.048 | 1.03 ± 0.11 | 1.01 ± 0.026 | 1.01 ± 0.1 | 0.94 ± 0.031 |
| SNRNP200 (UniProt O75643) | 1.17 ± 0.11 | 1.16 ± 0.041 | 1.24 ± 0.027 | 1.25 ± 0.034 | 1.5 ± 0.028 | 1.46 ± 0.069 |
| UniProt O75071 | 0.902 ± 0.13 | 1.264 ± 0.0072 | 0.947 ± 0.074 | 0.983 ± 0.19 | 0.858 ± 0.11 | 0.8836 ± 0.0029 |
| PPP1R11 (UniProt O60927) | 0.899 ± 0.091 | 0.969 ± 0.039 | 0.97 ± 0.037 | 0.998 ± 0.091 | 0.941 ± 0.039 | 0.944 ± 0.026 |
| UniProt O60858 and related entries | 1.08 ± 0.024 | 1.102 ± 0.0075 | 1.05 ± 0.083 | 1.06 ± 0.067 | 1.06 ± 0.059 | 1.06 ± 0.046 |
| UniProt O95696 and related entries | 1.14 ± 0.12 | 1.15 ± 0.13 | 1.27 ± 0.11 | 1.29 ± 0.096 | 1.38 ± 0.068 | 1.49 ± 0.042 |
| SURF6 (UniProt O75683) | 0.993 ± 0.081 | 0.964 ± 0.037 | 0.988 ± 0.068 | 1.04 ± 0.082 | 0.987 ± 0.044 | 1 ± 0.084 |
| MED26 (UniProt O95402) | 1.11 ± 0.11 | 1.1 ± 0.08 | 1.14 ± 0.051 | 1.19 ± 0.062 | 1.1 ± 0.039 | 1.17 ± 0.11 |
| IPO7 (UniProt O95373) | 0.928 ± 0.023 | 0.964 ± 0.025 | 0.943 ± 0.059 | 0.898 ± 0.031 | 0.904 ± 0.052 | 0.949 ± 0.041 |
| UniProt O94985-2 | 0.924 ± 0.044 | 0.968 ± 0.098 | 0.971 ± 0.06 | 1.01 ± 0.084 | 0.9 ± 0.05 | 0.915 ± 0.06 |
| PLOD3 (UniProt O60568) | 1.02 ± 0.061 | 0.994 ± 0.039 | 1.04 ± 0.046 | 1.01 ± 0.058 | 1.07 ± 0.028 | 1.08 ± 0.072 |
| UniProt O75381 and related entries | 0.922 ± 0.046 | 0.87 ± 0.03 | 0.853 ± 0.03 | 0.821 ± 0.053 | 0.84 ± 0.012 | 0.757 ± 0.066 |
| CDC123 (UniProt O75794) | 1.09 ± 0.059 | 1.09 ± 0.018 | 1.1 ± 0.046 | 1.05 ± 0.024 | 1.07 ± 0.031 | 1.07 ± 0.061 |
| KIN (UniProt O60870) | 1.03 ± 0.053 | 1.03 ± 0.071 | 0.989 ± 0.073 | 1.01 ± 0.065 | 0.992 ± 0.054 | 1 ± 0.08 |

Copied from the list:
NP40-soluble protein abundance (concentration: 6mM), UniProt O75071 is entered as 0.983 ± 0.19
NP40-soluble protein abundance (concentration: 2mM), UniProt O75381 and related entries is entered as 0.87 ± 0.03
